Assay: Residual solvents
Type: physicochemical

SMILES | -heptane residue (ICH limit 5000 ppm) [ppm] | ethyl acetate residue (ICH limit 5000 ppm) [pm] | Residual solvents
Cc1ncc(OC[C@@]2(c3cccc(F)c3)C[C@H]2C(=O)Nc2ccc(F)cn2)c(C)n1 [Amorphous solid, (1R,2S)-2-{[(2,4-dimethylpyrimidin-5-yl)oxy]methyl}-2-(3-fluorophenyl)-N-(5-fluoropyridin-2-yl)cyclopropanecarboxamide, reference compound] | 46596.16 | 1260.01 | –
Cc1ncc(OC[C@@]2(c3cccc(F)c3)C[C@H]2C(=O)Nc2ccc(F)cn2)c(C)n1 [Form CS2, (1R,2S)-2-{[(2,4-dimethylpyrimidin-5-yl)oxy]methyl}-2-(3-fluorophenyl)-N-(5-fluoropyridin-2-yl)cyclopropanecarboxamide] | – | – | no residual solvents
